{"sequences": {"note": "Chains of the proteins cited; added tags and fusions are not shown.", "UniProt P34972, whole entry": "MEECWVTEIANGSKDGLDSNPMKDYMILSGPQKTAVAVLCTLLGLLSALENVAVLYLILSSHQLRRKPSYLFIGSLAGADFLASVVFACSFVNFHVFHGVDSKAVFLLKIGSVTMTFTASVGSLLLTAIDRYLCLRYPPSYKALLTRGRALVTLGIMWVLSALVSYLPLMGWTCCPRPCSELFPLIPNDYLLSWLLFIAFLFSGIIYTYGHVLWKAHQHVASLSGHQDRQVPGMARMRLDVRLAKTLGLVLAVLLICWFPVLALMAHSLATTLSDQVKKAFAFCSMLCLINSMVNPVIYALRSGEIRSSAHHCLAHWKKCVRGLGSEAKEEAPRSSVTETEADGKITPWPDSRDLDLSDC"}, "source": "patent US9492447B2", "about": "“Cannabinoid receptor modulators” (Arena Pharmaceuticals, Inc., priority 2011, dated 2016)", "note": "Some results were stated once for a whole list of compounds, not compound by compound.", "data": [{"biological_target": "T1, human CB2 receptor (Homo sapiens, UniProt P34972)", "T1 construct": "CB2 was cloned into the pCMV-PK vector; 93-0164 (CHO-K1 EA-Arrestin parental cell line)", "test": "PathHunter β-arrestin assay, CB2 assay", "type": "cell-based", "conditions": "range over compounds, limits printed with their own units", "values": [{"smiles": "O=C(NC(CO)C1CCOCC1)c1nn(-c2cnccn2)c2c1C[C@H]1C[C@@H]21", "note": "(stereo in doubt) [Compound 684, (1aR,5aR)-2-Pyrazin-2-yl-1a,2,5,5a-tetrahydro-1H-2,3-diaza-cyclopropa[a]pentalene-4-carboxylic acid ((S)-2-hydroxy-1-tetrahydro-pyran-4-yl-ethyl)-amide]", "hCB2 EC50 value, range": "0.72 nM to about 3 μM"}, {"smiles": "CC(C)(CO)NC(=O)c1nn(-c2ccc(Cl)cn2)c2c1C[C@H]1C[C@@H]21", "note": "[Compound 151, (1aR,5aR)-2-(5-Chloro-pyridin-2-yl)-1a,2,5,5a-tetrahydro-1H-2,3-diaza-cyclopropa[a]pentalene-4-carboxylic Acid (2-Hydroxy-1,1-dimethyl-ethyl)-amide]", "hCB2 EC50 value, range": "0.72 nM to about 3 μM"}, {"smiles": "O=C(NC1(CO)CC1)c1nn(-c2ccc(Cl)cc2Cl)c2c1C[C@H]1C[C@@H]21", "note": "[Compound 174, (1aR,5aR)-2-(2,4-Dichloro-phenyl)-1a,2,5,5a-tetrahydro-1H-2,3-diaza-cyclopropa[a]pentalene-4-carboxylic Acid (1-Hydroxymethyl-cyclopropyl)-amide]", "hCB2 EC50 value, range": "0.72 nM to about 3 μM"}, {"smiles": "CC(C)(CO)NC(=O)c1nn(-c2ccc(F)cn2)c2c1C[C@H]1C[C@@H]21", "note": "[Compound 309, (1aR,5aR)-2-(5-Fluoro-pyridin-2-yl)-1a,2,5,5a-tetrahydro-1H-2,3-diaza-cyclopropa[a]pentalene-4-carboxylic Acid (2-Hydroxy-1,1-dimethyl-ethyl)-amide]", "hCB2 EC50 value, range": "0.72 nM to about 3 μM"}, {"smiles": "CC(C)(CO)NC(=O)c1nn(-c2ccc(F)cc2F)c2c1C1CC1C2", "note": "(stereo not drawn) [Compound 515, 1-(2,4-Difluoro-phenyl)-3b,4,4a,5-tetrahydro-1H-cyclopropa[3,4]cyclopenta[1,2-c]pyrazole-3-carboxylic Acid (2-Hydroxy-1,1-dimethyl-ethyl)-amide]", "hCB2 EC50 value, range": "0.72 nM to about 3 μM"}, {"smiles": "CC(C)(C)NC(=O)c1nn(-c2cnccn2)c2c1C[C@H]1C[C@@H]21", "note": "[Compound 593, (1aR,5aR)-2-Pyrazin-2-yl-1a,2,5,5a-tetrahydro-1H-2,3-diaza-cyclopropa[a]pentalene-4-carboxylic Acid tert-Butylamide]", "hCB2 EC50 value, range": "0.72 nM to about 3 μM"}, {"smiles": "CC(C)(C#N)NC(=O)c1nn(-c2cc(Cl)ccn2)c2c1C[C@H]1C[C@@H]21", "note": "[Compound 625, (1aR,5aR)-2-(4-Chloro-pyridin-2-yl)-1a,2,5,5a-tetrahydro-1H-2,3-diaza-cyclopropa[a]pentalene-4-carboxylic Acid (Cyano-dimethyl-methyl)-amide]", "hCB2 EC50 value, range": "0.72 nM to about 3 μM"}, {"smiles": "CC(C)(C)[C@@H](CO)NC(=O)c1nn(-c2cnccn2)c2c1C[C@H]1C[C@@H]21", "note": "[Compound 642, (1aR,5aR)-2-Pyrazin-2-yl-1a,2,5,5a-tetrahydro-1H-2,3-diaza-cyclopropa[a]pentalene-4-carboxylic Acid ((S)-1-Hydroxymethyl-2,2-dimethyl-propyl)-amide]", "hCB2 EC50 value, range": "0.72 nM to about 3 μM"}, {"smiles": "CC(C)(CO)NC(=O)c1nn(-c2cc(C#N)ccn2)c2c1C[C@H]1C[C@@H]21", "note": "[Compound 644, (1aR,5aR)-2-(4-Cyano-pyridin-2-yl)-1a,2,5,5a-tetrahydro-1H-2,3-diaza-cyclopropa[a]pentalene-4-carboxylic Acid (2-Hydroxy-1,1-dimethyl-ethyl)-amide]", "hCB2 EC50 value, range": "0.72 nM to about 3 μM"}, {"smiles": "CC(C)(COP(=O)(O)O)NC(=O)c1nn(-c2cc(C#N)ccn2)c2c1C[C@H]1C[C@@H]21", "note": "[Compound 646, Phosphoric Acid mono-(2-{[(1aR,5aR)-2-(4-Cyano-pyridin-2-yl)-1a,2,5,5a-tetrahydro-1H-2,3-diaza-cyclopropa[a]pentalene-4-carbonyl]-amino}-2-methyl-propyl) Ester]", "hCB2 EC50 value, range": "0.72 nM to about 3 μM"}, {"smiles": "CNC(=O)[C@@H](NC(=O)c1nn(-c2cnccn2)c2c1C[C@H]1C[C@@H]21)C(C)(C)C", "note": "[Compound 667, (1aR,5aR)-2-Pyrazin-2-yl-1a,2,5,5a-tetrahydro-1H-2,3-diaza-cyclopropa[a]pentalene-4-carboxylic Acid [2,2-Dimethyl-1-((S)-methylcarbamoyl)-propyl]-amide]", "hCB2 EC50 value, range": "0.72 nM to about 3 μM"}, {"smiles": "CC(C)(C)[C@@H](COP(=O)(O)O)NC(=O)c1nn(-c2cnccn2)c2c1C[C@H]1C[C@@H]21", "note": "[Compound 683, Phosphoric Acid mono-{(S)-3,3-Dimethyl-2-[((1aR,5aR)-2-pyrazin-2-yl-1a,2,5,5a-tetrahydro-1H-2,3-diaza-cyclopropa[a]pentalene-4-carbonyl)-amino]-butyl}Ester]", "hCB2 EC50 value, range": "0.72 nM to about 3 μM"}, {"smiles": "CC(C)[C@@H](CO)NC(=O)c1nn(-c2c[n+]([O-])ccn2)c2c1C[C@H]1C[C@@H]21", "note": "[Compound 690, (1aR,5aR)-2-(4-Oxy-pyrazin-2-yl)-1a,2,5,5a-tetrahydro-1H-2,3-diaza-cyclopropa[a]pentalene-4-carboxylic Acid ((S)-1-Hydroxymethyl-2-methyl-propyl)-amide]", "hCB2 EC50 value, range": "0.72 nM to about 3 μM"}, {"smiles": "CC(C)(C)[C@@H](CO)NC(=O)c1nn(-c2cnccn2)c2c1C[C@@H]1C[C@H]21", "note": "[Compound 696, (1aS,5aS)-2-Pyrazin-2-yl-1a,2,5,5a-tetrahydro-1H-2,3-diaza-cyclopropa[a]pentalene-4-carboxylic Acid ((S)-1-Hydroxymethyl-2,2-dimethyl-propyl)-amide]", "hCB2 EC50 value, range": "0.72 nM to about 3 μM"}, {"smiles": "O=C(NC1(CO)CCC1)c1nn(-c2c[n+]([O-])ccn2)c2c1C[C@H]1C[C@@H]21", "note": "[Compound 698, (1aR,5aR)-2-(4-Oxy-pyrazin-2-yl)-1a,2,5,5a-tetrahydro-1H-2,3-diaza-cyclopropa[a]pentalene-4-carboxylic Acid (1-Hydroxymethyl-cyclobutyl)-amide]", "hCB2 EC50 value, range": "0.72 nM to about 3 μM"}, {"smiles": "O=C(NC1(c2ccccn2)CCC1)c1nn(-c2c[n+]([O-])ccn2)c2c1C[C@@H]1C[C@H]21", "note": "[Compound 700, (1aS,5aS)-2-(4-Oxy-pyrazin-2-yl)-1a,2,5,5a-tetrahydro-1H-2,3-diaza-cyclopropa[a]pentalene-4-carboxylic Acid (1-Pyridin-2-yl-cyclobutyl)-amide]", "hCB2 EC50 value, range": "0.72 nM to about 3 μM"}, {"smiles": "CC(C)(C)[C@@H](COP(=O)(O)O)NC(=O)c1nn(-c2c[n+]([O-])ccn2)c2c1C[C@H]1C[C@@H]21", "note": "[Compound 703, Phosphoric Acid mono-((S)-3,3-Dimethyl-2-{[(1aR,5aR)-2-(4-oxy-pyrazin-2-yl)-1a,2,5,5a-tetrahydro-1H-2,3-diaza-cyclopropa[a]pentalene-4-carbonyl]-amino}-butyl) Ester]", "hCB2 EC50 value, range": "0.72 nM to about 3 μM"}, {"smiles": "CNC(=O)[C@@H](NC(=O)c1nn(-c2c[n+]([O-])ccn2)c2c1C[C@H]1C[C@@H]21)C(C)(C)C", "note": "[Compound 704, (1aR,5aR)-2-(4-Oxy-pyrazin-2-yl)-1a,2,5,5a-tetrahydro-1H-2,3-diaza-cyclopropa[a]pentalene-4-carboxylic Acid ((S)-2,2-Dimethyl-1-methylcarbamoyl-propyl)-amide]", "hCB2 EC50 value, range": "0.72 nM to about 3 μM"}]}]}
